{"source": "the supplement of paper PMC10338343", "note": "± gives the standard deviation. This is a selection; strong and weak results do not stand in their true shares. Many entries were measured with a wide error.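 Further: 1 nM active piRISC with 0.1 nM target library at 33 °C single turnover.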"}
{"test_system": "MILI (PIWIL2) piRISC loaded with piRNA #1 (26 nt)", "assay": "pre-steady-state target cleavage rate (min^-1); MIWI and MILI are mouse PIWI proteins and EfPiwi is from a freshwater sponge; tags in brackets are library labels; higher = faster piRNA-guided slicing of the target", "settings": "guide: piRNA #1 5'p-UGAGGUAGUAGGUUGUAUAGUAUCCA; auxiliary factor: 500 nM mouse GTSF1", "how_it_was_run": "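The pre-steady-state cleavage rate was calculated from a burst-and-steady-state fit. Data came from Cleave-'n-Seq, in which […] transcribed, DNA-blocked target RNA library was mixed with 1 nM active affinity-purified piRISC carrying one synthetic guide, with or without 500 nM GTSF1 partner protein, in HEPES–potassium acetate buffer at 33 °C for 0–8 or 0–960 min. Uncleaved targets were sequenced and normalised to depth and to weakly complementary targets, three trials were pooled, and k3 was capped at 0.0001 min^-1.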"}
{"sequence": "GGAGACCUAUGAUAUCAAGCUAGUACCUCA", "pre-steady-state target cleavage rate": "0.000951 ± 0.008"}
{"sequence": "GGAGACCUAUGAUAUGUACCAACUACCACA", "pre-steady-state target cleavage rate": "0.000297 ± 0.014"}
{"sequence": "GGAGAGGAUACUAUACAACCUUCUAGCUCA", "pre-steady-state target cleavage rate": "0.00136 ± 0.0037"}
{"sequence": "GGAGACCUAUGAUAUCUACCUACUACGUCA", "pre-steady-state target cleavage rate": "< 0.0001"}
{"sequence": "GGAGACGAUACUAUUACAACCUACUACCUCA", "pre-steady-state target cleavage rate": "0.172 ± 0.011"}
{"sequence": "GGAGACGAUACUAUACAACCUAGUACCUGA", "pre-steady-state target cleavage rate": "0.00155 ± 0.0061"}
{"sequence": "GGAGACCUUACUUACAACCUACUACCUCA", "pre-steady-state target cleavage rate": "0.0198 ± 0.0056"}
{"sequence": "GGAGACCUAUGAUAUGUACCUCACUACCUCA", "pre-steady-state target cleavage rate": "0.000103 ± 0.026"}
{"sequence": "GGAGACCUAUGAUAUGUACCUACUAACCUCA", "pre-steady-state target cleavage rate": "0.00019 ± 0.01"}
{"sequence": "GGAGUGGAUUCUAUUCAACCUACUACCUCA", "pre-steady-state target cleavage rate": "0.165 ± 0.008"}
{"sequence": "GGAGACGAUACUAUACUACCUACAACCUCA", "pre-steady-state target cleavage rate": "0.181 ± 0.017"}
{"sequence": "GGAGACCUAUCUAUACAACCUACAUACCUCA", "pre-steady-state target cleavage rate": "0.113 ± 0.015"}
{"sequence": "GGAGAGGAUACUAUACAACCAAGUACCUCA", "pre-steady-state target cleavage rate": "0.0015 ± 0.0047"}
{"sequence": "GGAGACCUAUCUAUACAACCAACUACCACA", "pre-steady-state target cleavage rate": "0.00574 ± 0.0023"}
{"sequence": "GGAGACCAUACUAUACAACCUACAUGGAGA [g8:g23:cont:t1A]", "pre-steady-state target cleavage rate": "0.00198 ± 0.0058"}
{"sequence": "GGAGACCUAUGAUAUCAACCUUCUAGCUCA", "pre-steady-state target cleavage rate": "0.000195 ± 0.013"}
